Consider four targets from the supplement of paper PMC10849652.

Amino acid sequences for entries named in this document (tags omitted). A change or cut given only in a name is not applied to a line headed by its entry.
UniProt Q8N4L2: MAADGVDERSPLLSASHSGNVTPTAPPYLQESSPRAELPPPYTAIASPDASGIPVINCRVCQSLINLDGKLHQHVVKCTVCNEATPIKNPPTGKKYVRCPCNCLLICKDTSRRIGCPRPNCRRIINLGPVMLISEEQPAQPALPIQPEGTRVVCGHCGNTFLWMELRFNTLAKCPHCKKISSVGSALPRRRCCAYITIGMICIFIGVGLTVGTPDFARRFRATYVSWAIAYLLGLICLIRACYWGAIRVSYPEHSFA
UniProt Q9BZM1: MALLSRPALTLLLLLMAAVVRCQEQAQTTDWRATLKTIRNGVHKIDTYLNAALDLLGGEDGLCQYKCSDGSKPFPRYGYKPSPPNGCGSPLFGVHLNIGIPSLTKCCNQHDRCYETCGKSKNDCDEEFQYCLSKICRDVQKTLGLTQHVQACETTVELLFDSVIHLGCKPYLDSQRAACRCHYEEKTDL
UniProt Q9H814, whole entry, looked up: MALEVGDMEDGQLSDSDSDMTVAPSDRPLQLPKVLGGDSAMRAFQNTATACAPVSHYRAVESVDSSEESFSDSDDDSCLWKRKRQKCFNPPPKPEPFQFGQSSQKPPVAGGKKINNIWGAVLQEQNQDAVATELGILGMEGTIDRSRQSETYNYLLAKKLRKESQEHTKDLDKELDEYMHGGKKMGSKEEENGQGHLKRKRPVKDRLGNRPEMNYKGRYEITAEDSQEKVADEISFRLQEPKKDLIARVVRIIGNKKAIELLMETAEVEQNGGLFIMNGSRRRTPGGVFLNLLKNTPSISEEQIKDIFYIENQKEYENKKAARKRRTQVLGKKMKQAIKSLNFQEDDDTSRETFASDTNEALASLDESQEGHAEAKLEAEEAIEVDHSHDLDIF
UniProt Q8TCG2: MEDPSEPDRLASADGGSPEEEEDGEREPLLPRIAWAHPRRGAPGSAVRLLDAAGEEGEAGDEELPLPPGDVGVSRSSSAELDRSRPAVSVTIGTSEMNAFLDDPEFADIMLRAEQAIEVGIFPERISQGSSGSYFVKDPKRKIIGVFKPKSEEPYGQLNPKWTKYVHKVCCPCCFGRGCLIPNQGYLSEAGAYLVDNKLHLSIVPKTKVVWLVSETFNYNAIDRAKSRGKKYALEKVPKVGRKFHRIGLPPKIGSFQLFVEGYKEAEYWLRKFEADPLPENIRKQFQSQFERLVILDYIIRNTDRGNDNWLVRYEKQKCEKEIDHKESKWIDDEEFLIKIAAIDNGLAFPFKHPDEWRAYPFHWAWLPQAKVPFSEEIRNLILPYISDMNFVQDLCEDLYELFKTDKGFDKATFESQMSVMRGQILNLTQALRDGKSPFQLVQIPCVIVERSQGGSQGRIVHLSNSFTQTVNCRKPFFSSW

The list shows a part of the results. Residues, ends and D or L forms follow the SMILES beside them. *: point of attachment. Cbz = O=C(OCc1ccccc1)*

Common to all, as to assay: log2 fold change, soluble protein after heating vs DMSO (PISA); higher = thermal stabilisation; K562 cells, 10 uM, 30 min; active = over 0.2 and 3.5 SD of the protein, either way, in both replicates (recomputed)
Compound in one assay: C#Cc1cccc(Nc2ncnc3cc(OCCOC)c(OCCOC)cc23)c1 [erlotinib]
Summed up:
(§1)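 Quantification of soluble protein used TMTpro 16plex LC-MS/MS, with channel sums equalised. Samples were the supernatant after 21,000xg for 90 min of pooled aliquots from K562 cells (2×10^6 cells/mL) treated with 10 μM compound for 30 min, heated for 3 min over 48°C-58°C, and extracted in PBS with 0.5% NP-40 at 4°C. Values, from duplicates, describe thermal stability against control samples on a log2 fold-change scale.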

Compound in assay [1]: C/C(=N\NC(=O)C1=CC(=CC=C1)S(=O)(=O)N2CCOCC2)/C3=C(C=CC(=C3)Cl)O
Summed up:
as §1

Compound in assay [2]: C1=CC(=C(C=C1Cl)C2=NC3=NC=CN=C3C(=N2)NC4=CC=NC=C4)F
The gist of the method: as §1

Compound in assay [3]: C1=CC(=CC=C1C2=NC3=C(N2)C=C(C=C3)C(=O)N)OC4=CC=C(C=C4)Cl
The gist of the method:
as §1

Compound in assay [4]: C1=CC2=C(C=CC(=C2)/C=C\3/C(=O)NC(=NCC4=CC=CS4)S3)N=C1
The gist of the method: as §1

Compound in assay [5]: C1=CC2=NC=CN=C2C=C1/C=C/3\C(=O)NC(=O)S3
Summed up: as §1

Compound in assay [6]: C1=CC=C(C=C1)C2=NC(=C(N2)C3=CC=NC=C3)C4=CC(=C(C=C4)Cl)O
The gist of the method: as §1

Compound in assay [7]: C1=CC=C2C(=C1)C3=NNC4=CC=CC(=C43)C2=O
The gist of the method: as §1

Compound in assay [8]: C1CCN(C1)C(=O)NC2=CC=CC(=C2)NC3=NC=C(C(=N3)NCCC4=CN=CN4)Br
The gist of the method:
as §1

Compound in assay [9]: C1CN(CCC1(CC2=CC=C(C=C2)Cl)N)C3=NC=NC4=C3C=CN4
The gist of the method:
as §1

Compound in another assay: C1COCCN1CCN2C3=CC=CC=C3N=C2NC(=O)C4=CC(=CC=C4)[N+](=O)[O-] [IRAK-1-4 Inhibitor I]
The gist of the method: as §1

Compound in the next assay: C=CC(=O)N1CCC[C@@H](n2nc(-c3ccc(Oc4ccccc4)cc3)c3c(N)ncnc32)C1 [ibrutinib]
Summed up: as §1

Compound in assay [10]: CC(=O)c1cnc2ccc(-c3cc(Cl)c(O)c(Cl)c3)nc2c1N[C@H]1CC[C@H](CN(C)C)CC1
Summed up:
as §1

Compound in a further assay: CC(C)(C)Cn1c(N)nc2ccc(-c3[nH]c(C(C)(C)C)nc3-c3ccc(F)cc3)nc21 [ralimetinib]
The gist of the method:
as §1

Compound in assay [11]: CC(C)(O)CC(=O)NCCn1ccc2ncnc(Nc3ccc(Oc4cccc(C(F)(F)F)c4)c(Cl)c3)c21
The gist of the method:
as §1

Compound in assay [12]: CC(C)C1=C2N=C(C=C(N2N=C1)NCC3=CC=CC=C3)NCCCCCCN
Summed up:
as §1

Compound in assay [13]: CC(C)C[C@@H](C=O)NC(=O)[C@H](CC(C)C)NC(=O)[C@H](CC(C)C)NC(=O)OCc1ccccc1
The gist of the method: as §1

Compound in a further assay: CC(C)N(C[C@H]1O[C@@H](n2cnc3c(N)ncnc32)[C@H](O)[C@@H]1O)[C@H]1C[C@@H](CCc2nc3cc(C(C)(C)C)ccc3[nH]2)C1 [pinometostat]
The gist of the method:
as §1

Compound in assay [14]: CC1=C(C2=C(C=C1)C(=O)C3=CC=CC=C3N2CCCN)C
The gist of the method: as §1

Compound in assay [15]: CC1=C(C(CC(=O)N1)C2=CC=C(C=C2)C(F)(F)F)C(=O)NC3=C(C=C4C(=C3)C=NN4)F
The gist of the method:
as §1

Regarding PIP4P2 (UniProt Q8N4L2), the log2 fold change with erlotinib was inactive: 0.014; in assay [1], inactive: -0.066; in [2], inactive: 0.026; in assay [3] it was inactive: 0.039; in [4], inactive: 0.009; in [5] it was inactive: 0.145. The log2 fold change in assay [6] is inactive: 0.063; in assay [7], inactive: -0.002; in assay [8], inactive: 0.014; in [9], inactive: -0.007; in the assay with IRAK-1-4 Inhibitor I, inactive: -0.027; with ibrutinib, inactive: 0. Besides, the log2 fold change was inactive: -0.028 in assay [10]; inactive: 0.005 in the assay with ralimetinib; inactive: 0.142 in assay [11]; active: -0.624 in assay [12]; inactive: 0.011 in assay [13]; inactive: 0.012 with pinometostat. Further, the log2 fold change in assay [14] was inactive: 0.033.
As for PLA2G12A (UniProt Q9BZM1), the log2 fold change with erlotinib was inactive: 0.197; in assay [1] it was inactive: 0.002; in [2], inactive: 0.222; in assay [3], inactive: -0.359; in assay [4] it was inactive: -0.099; in assay [5] it was inactive: -0.009. In addition, the log2 fold change was inactive: 0.141 in assay [6]; inactive: 0.045 in [7]; inactive: -0.033 in assay [8]; inactive: -0.097 in [9]; inactive: 0.08 with ibrutinib; inactive: -0.011 in [10]. Besides, the log2 fold change in the assay with ralimetinib is inactive: -0.167; in [11], inactive: -0.142; in [12] it was inactive: -0.143; in assay [13], inactive: 0.054; in assay [15], inactive: 0.08; in assay [14], inactive: -0.061.
Take PHAX (UniProt Q9H814): the log2 fold change with erlotinib was inactive: -0.004; in assay [1], inactive: 0.042; in [2] it was inactive: 0.045; in assay [3] it was inactive: 0.009; in assay [4], inactive: 0.023; in assay [5], inactive: 0.054. The log2 fold change was inactive: -0.047 in assay [6]; inactive: -0.101 in assay [7]; inactive: -0.013 in assay [8]; inactive: 0.059 in assay [9]; inactive: 0.015 with IRAK-1-4 Inhibitor I; inactive: 0.027 with ibrutinib. For the same target, the log2 fold change in assay [10] was inactive: -0.041; in the assay with ralimetinib, inactive: 0.002; in assay [11] it was inactive: 0.024; in [12], inactive: -0.16; in assay [13], inactive: 0.019; in the assay with pinometostat, inactive: 0.016. The log2 fold change in assay [14] was active: -0.253.
As for PI4K2B (UniProt Q8TCG2), the log2 fold change with erlotinib is inactive: -0.003; in assay [1], inactive: -0.008; in assay [3], inactive: 0.065; in assay [4] it was inactive: 0.004; in assay [5], inactive: 0.016; in [6], inactive: -0.019. The log2 fold change in assay [7] is inactive: -0.007; in assay [8], inactive: 0.048; in assay [9] it was inactive: -0.173; with IRAK-1-4 Inhibitor I, inactive: 0.035; with ibrutinib, inactive: -0.004; in assay [10], inactive: 0.042. Further, the log2 fold change is inactive: -0.04 with ralimetinib; inactive: -0.131 in [12]; inactive: -0.017 in [13]; inactive: 0.053 in the assay with pinometostat; inactive: 0.003 in [14].
